Test results reported in publication PMC7577436.
No constants are given. Whether binding was seen depends on the method and setting. Binding seen in cells or lysates may run through a third protein. Some results given as binding are weak or reduced against the parent protein; the word gives no strength.

T1: p120 catenin (human (endogenous in HeLa)) (UniProt O60716)
T1 sequence: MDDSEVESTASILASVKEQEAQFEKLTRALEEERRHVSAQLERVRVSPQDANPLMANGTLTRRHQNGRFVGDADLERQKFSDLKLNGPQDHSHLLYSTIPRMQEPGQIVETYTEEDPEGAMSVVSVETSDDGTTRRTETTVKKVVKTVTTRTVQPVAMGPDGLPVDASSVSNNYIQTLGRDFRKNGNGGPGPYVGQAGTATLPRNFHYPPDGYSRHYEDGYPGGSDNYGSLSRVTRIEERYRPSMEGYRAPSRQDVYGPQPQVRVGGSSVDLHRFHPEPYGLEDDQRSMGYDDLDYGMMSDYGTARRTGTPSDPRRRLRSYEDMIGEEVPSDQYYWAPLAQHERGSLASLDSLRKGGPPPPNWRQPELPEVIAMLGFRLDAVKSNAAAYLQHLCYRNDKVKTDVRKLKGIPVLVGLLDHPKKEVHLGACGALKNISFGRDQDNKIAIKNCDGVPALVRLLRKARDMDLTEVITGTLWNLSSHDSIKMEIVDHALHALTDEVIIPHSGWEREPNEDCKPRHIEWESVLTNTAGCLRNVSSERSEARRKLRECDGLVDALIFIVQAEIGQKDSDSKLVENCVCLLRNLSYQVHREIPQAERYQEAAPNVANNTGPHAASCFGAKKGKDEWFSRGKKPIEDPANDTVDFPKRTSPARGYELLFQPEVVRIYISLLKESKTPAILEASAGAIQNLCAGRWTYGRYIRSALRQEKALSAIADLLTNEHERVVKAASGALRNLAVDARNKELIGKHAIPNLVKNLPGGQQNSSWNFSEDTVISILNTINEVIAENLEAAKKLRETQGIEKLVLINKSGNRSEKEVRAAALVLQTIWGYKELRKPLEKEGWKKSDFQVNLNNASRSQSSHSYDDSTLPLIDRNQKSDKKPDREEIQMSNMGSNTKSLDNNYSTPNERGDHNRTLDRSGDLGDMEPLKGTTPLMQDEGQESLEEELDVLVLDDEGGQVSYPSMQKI

B1: p120 catenin (protein, UniProt O60716 1-968)
chain: T1 sequence

Key:
[1] = biological target: T1, p120 catenin (human (endogenous in HeLa)); experiment: co-IP; HeLa cells infected with HPV16.L2F (Luc) or HPV16 L1 VLP for 2.5 hrs, lysed in 1% DMNG in HN buffer; antibody against p120, protein G Dynabeads; immunoblot
[2] = biological target: HPV16 L2 minor capsid protein with a C-terminal 3xFLAG tag, in the pseudovirus WT HPV16.L2F (HPV16) (UniProt P03107); experiment: co-IP; HeLa cells infected with WT HPV16.L2F (Luc) (6 hrs in Fig 1B; time course in Fig 3), lysed in 1% DMNG in HN buffer; FLAG M2 antibody overnight at 4°C, protein G Dynabeads; immunoblot
[3] = biological target: HPV16 L2 minor capsid protein with a C-terminal 3xFLAG tag, in the pseudovirus WT HPV16.L2F (HPV16) (UniProt P03107); experiment: condition: only 7–10 hpi and later (not detected by immunoblotting at 16 hpi); co-IP; as a2, FLAG immunoprecipitation of L2 at late time points of the time course (7–10 hpi and 16 hpi); immunoblot for p120

Molecule | binding [1] | binding [2] | binding [3]
HPV16 L1 major capsid protein in the pseudovirus WT HPV16.L2F (from UniProt P03101 1-505) | binds |  | 
HPV16 L1 VLP (virus-like particles containing L1 only) (from UniProt P03101 1-505) | binds |  | 
B1 |  | binds | no binding
